Results reported in patent US20120276009A1.

Target: murine pTau (pS409) in cortex (Mus musculus)
Assay: Western blot of cortex fractions of TMHT (Tg) and nTg mice with ACI-36-2B6-Ab1 as the blotting antibody (1.6 µg/mL by paragraph 440), murine band, infrared quantification normalised to beta-actin

B1: ACI-36-2B6-Ab1 (antibody, IgG2b, V domains shown)
VH: EVQLQQSGPELVKPGTSVKISCKASGYTFTDYYMNWVKQSHGKSLEWIGDINPNRGGTTYNQKFKGKATLTVDKSSSTAYMELRSLTSEDSAVYYCASYYAVGYWGQGTTLTVSS
VL: DVVMTQTPLSLPVSLGDQASISCRSSQSLVHSHGKTYLHWYLQKPGQSPKLLIYKVSNRFSGVPDRFSGSGSGTDFTLKISRVEAEDLGVYFCSQTAHFPYTFGGGTKLEIK
  binding: binds

These are yes or no findings as the source states them, for the method shown. Binding calls can cover weak binding; strength is not graded here.
